Common to all, as to test: co-IP
The target in assay [1] is T1, HIG2-FLAG WT (human) (UniProt Q9Y5L2).
T1 sequence: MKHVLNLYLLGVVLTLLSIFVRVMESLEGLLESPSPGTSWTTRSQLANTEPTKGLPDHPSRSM

Assay [2] addresses T2, HIG2-FLAG Δ7-11 (human) (UniProt Q9Y5L2).
T2 sequence: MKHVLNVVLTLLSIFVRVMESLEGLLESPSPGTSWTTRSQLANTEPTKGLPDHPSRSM

The target of assay [3] is T3, Myc-ATGLΔPT (not stated (human or mouse cDNA cloned)) (UniProt Q8BJ56).
T3 sequence: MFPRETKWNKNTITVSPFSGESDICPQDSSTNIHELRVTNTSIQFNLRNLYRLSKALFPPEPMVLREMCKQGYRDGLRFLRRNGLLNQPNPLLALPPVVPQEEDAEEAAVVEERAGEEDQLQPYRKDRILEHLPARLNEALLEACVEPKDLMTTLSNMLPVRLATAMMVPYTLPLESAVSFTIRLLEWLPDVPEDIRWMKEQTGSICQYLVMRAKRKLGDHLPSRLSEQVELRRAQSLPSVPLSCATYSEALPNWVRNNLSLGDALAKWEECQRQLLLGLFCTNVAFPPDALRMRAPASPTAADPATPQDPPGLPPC

The target in assay [4] is T4, Myc-ATGL (adipose triglyceride lipase), wild type (not stated (human or mouse cDNA cloned)) (UniProt Q8BJ56).
T4 sequence: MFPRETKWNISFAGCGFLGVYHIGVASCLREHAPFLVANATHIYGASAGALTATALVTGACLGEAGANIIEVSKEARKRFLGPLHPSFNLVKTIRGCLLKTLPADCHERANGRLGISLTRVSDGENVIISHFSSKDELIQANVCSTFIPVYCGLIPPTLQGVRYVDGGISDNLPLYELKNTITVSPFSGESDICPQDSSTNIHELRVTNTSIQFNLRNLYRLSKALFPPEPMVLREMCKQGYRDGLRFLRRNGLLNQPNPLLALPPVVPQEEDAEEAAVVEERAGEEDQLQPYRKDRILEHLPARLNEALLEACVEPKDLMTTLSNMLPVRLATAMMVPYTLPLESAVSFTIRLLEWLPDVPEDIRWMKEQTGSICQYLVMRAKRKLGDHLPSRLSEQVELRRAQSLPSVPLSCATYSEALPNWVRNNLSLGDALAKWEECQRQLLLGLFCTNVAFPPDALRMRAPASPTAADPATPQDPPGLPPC

For assay [5], the target named is T5, Myc-ATGLΔHD (not stated (human or mouse cDNA cloned)) (UniProt Q8BJ56).
T5 sequence: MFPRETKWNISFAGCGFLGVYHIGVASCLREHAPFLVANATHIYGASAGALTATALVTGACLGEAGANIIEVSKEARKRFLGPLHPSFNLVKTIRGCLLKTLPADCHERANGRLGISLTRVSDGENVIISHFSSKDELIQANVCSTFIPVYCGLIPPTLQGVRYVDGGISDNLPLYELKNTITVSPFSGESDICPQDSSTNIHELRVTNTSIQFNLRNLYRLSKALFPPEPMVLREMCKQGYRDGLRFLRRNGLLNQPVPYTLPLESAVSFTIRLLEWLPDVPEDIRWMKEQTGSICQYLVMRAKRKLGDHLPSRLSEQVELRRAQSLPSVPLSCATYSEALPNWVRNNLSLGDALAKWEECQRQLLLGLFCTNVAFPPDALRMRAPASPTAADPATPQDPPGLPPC

These are yes or no findings as the source states them, for the method shown. Binding seen in cells or lysates may run through a third protein. Some entries that bind do so weakly or less than the wild type. Where a sequence is shown, tags or fusion partners need not be part of it.

B1: Myc-ATGL (adipose triglyceride lipase), wild type (enzyme, UniProt Q8BJ56 1-486)
chain: MFPRETKWNISFAGCGFLGVYHIGVASCLREHAPFLVANATHIYGASAGALTATALVTGACLGEAGANIIEVSKEARKRFLGPLHPSFNLVKTIRGCLLKTLPADCHERANGRLGISLTRVSDGENVIISHFSSKDELIQANVCSTFIPVYCGLIPPTLQGVRYVDGGISDNLPLYELKNTITVSPFSGESDICPQDSSTNIHELRVTNTSIQFNLRNLYRLSKALFPPEPMVLREMCKQGYRDGLRFLRRNGLLNQPNPLLALPPVVPQEEDAEEAAVVEERAGEEDQLQPYRKDRILEHLPARLNEALLEACVEPKDLMTTLSNMLPVRLATAMMVPYTLPLESAVSFTIRLLEWLPDVPEDIRWMKEQTGSICQYLVMRAKRKLGDHLPSRLSEQVELRRAQSLPSVPLSCATYSEALPNWVRNNLSLGDALAKWEECQRQLLLGLFCTNVAFPPDALRMRAPASPTAADPATPQDPPGLPPC
B1: the binding entry in assay [1] is reported as “binds”; in assay [2], “no binding”.

B2: HIG2-FLAG WT (protein, UniProt Q9Y5L2 1-63)
chain: MKHVLNLYLLGVVLTLLSIFVRVMESLEGLLESPSPGTSWTTRSQLANTEPTKGLPDHPSRSM
Regarding B2, the binding entry in assay [3] is “no binding”; in assay [4], “binds”; in assay [5] it was “binds”.

Source of the values: paper doi:10.1101/181503.
